Assay results reported in patent US20110136880A1, “Latrunculin-Based Macrolides and Their Uses” (priority 2009, published 2011).
Some results were stated once for a whole list of compounds, not compound by compound.

Test system: microvessel density marker CD31 in endothelial colony forming cells (ECFCs)
Test: Angiogenesis inhibition assay (CD31 in ECFCs)
Type: cell-based
Conditions: range; read-out: antiangiogenic activity IC50 range
Protocol: Effects on Angiogenesis. Angiogenesis inhibition assays were conducted using endothelial colony forming cells (ECFCs). The microvessel density marker CD31 was quantified using confocal laser scanning microscopy and immunohistochemistry.

C/C1=C/C(=O)O[C@@H]2C[C@@H](CC[C@H](C)/C=C\CC1)O[C@@](O)([C@@H]1CSC(=O)N1)C2 [Compound 20, latrunculin B]
IC50: 40 to 820 nM
